Experimental data as given in the supplement of paper PMC6078165.
The reference is the same well before dosing, and untreated signal decays as well.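 Labels refer to human fibroblasts, largely primary: uterine (C12385, HUF), lung (H6013), bone (Hs27A), adrenal (HADF), skin (WS1), plus mammary HMF and breast cancer-associated Hs343T. Cancer lines are basal-like or mesenchymal-like triple-negative breast cancer. The paper counts as hits responses shifting over 3x the replicate standard deviation. The tissue of the other fibroblasts is not given here.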

Tested on: MDAMB436
Test: relative JC-1 red fluorescence (viability) vs pre-drug, coculture with fibroblast (fraction); higher = more viable cancer cells
Method: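 JC-1 labelled TNBC cells cocultured 1:1 (1,500 cells each) with CellTrace Violet stained primary or stromal fibroblasts in 384-well plates in FluoroBrite medium, treated with one of 42 anticancer drugs at 0.1, 1, 10 or 100 uM. JC-1 red fluorescence (mitochondrial integrity in cancer cells only) was read by plate reader every 8 h for 72 h. Values are normalised to each well's pre-drug value. The stock of one drug was tenfold lower, so its dose labels may be too high.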

C#Cc1cccc(Nc2ncnc3cc(OCCOC)c(OCCOC)cc23)c1 [Erlotinib]
relative JC-1 red fluorescence
Conditions | 8 h | 16 h | 24 h | 32 h | 40 h | 48 h | 56 h | 64 h | 72 h
0.1 µM, coculture fibroblast: C12385 | 0.8081 | 0.705 | 0.676 | 0.597 | 0.544 | 0.52 | 0.488 | 0.467 | 0.452
0.1 µM, coculture fibroblast: H6013 | 0.84 | 0.743 | 0.727 | 0.717 | 0.686 | 0.703 | 0.659 | 0.639 | 0.596
0.1 µM, coculture fibroblast: H6019 | 0.743 | 0.689 | 0.666 | 0.594 | 0.552 | 0.533 | 0.4834 | 0.445 | 0.4103
0.1 µM, coculture fibroblast: H6076 | 0.7501 | 0.647 | 0.627 | 0.573 | 0.561 | 0.535 | 0.544 | 0.5473 | 0.533
0.1 µM, coculture fibroblast: H6231 | 0.779 | 0.698 | 0.682 | 0.6 | 0.568 | 0.533 | 0.507 | 0.467 | 0.436
0.1 µM, coculture fibroblast: HADF | 0.82059 | 0.746 | 0.704 | 0.672 | 0.638 | 0.649 | 0.588 | 0.567 | 0.525
0.1 µM, coculture fibroblast: HCFa | 0.834 | 0.751 | 0.726 | 0.694 | 0.659 | 0.667 | 0.6 | 0.588 | 0.534
0.1 µM, coculture fibroblast: HCPF | 0.795 | 0.713 | 0.6953 | 0.632 | 0.599 | 0.564 | 0.538 | 0.518 | 0.495
0.1 µM, coculture fibroblast: HHSteC | 0.81 | 0.754 | 0.7257 | 0.689 | 0.672 | 0.6863 | 0.6223 | 0.601 | 0.5422
0.1 µM, coculture fibroblast: HMF | 0.805 | 0.701 | 0.668 | 0.619 | 0.596 | 0.562 | 0.551 | 0.532 | 0.518
0.1 µM, coculture fibroblast: HPFa | 0.883 | 0.821 | 0.808 | 0.76 | 0.748 | 0.752 | 0.67 | 0.63 | 0.555
0.1 µM, coculture fibroblast: HUF | 0.835 | 0.746 | 0.734 | 0.664 | 0.613 | 0.589 | 0.567 | 0.554 | 0.544
0.1 µM, coculture fibroblast: Hs5 | 0.8167 | 0.7341 | 0.7041 | 0.646 | 0.614 | 0.571 | 0.566 | 0.531 | 0.52
0.1 µM, coculture fibroblast: Hs27A | 0.786 | 0.718 | 0.669 | 0.639 | 0.591 | 0.641 | 0.545 | 0.519 | 0.452
0.1 µM, coculture fibroblast: Hs343T | 0.767 | 0.654 | 0.608 | 0.558 | 0.529 | 0.5 | 0.494 | 0.478 | 0.478
0.1 µM, coculture fibroblast: WS1 | 0.7919 | 0.6894 | 0.6566 | 0.5713 | 0.5335 | 0.51 | 0.482 | 0.458 | 0.445
1 µM, coculture fibroblast: C12385 | 0.76 | 0.7357 | 0.74 | 0.68 | 0.648 | 0.635 | 0.622 | 0.606 | 0.6
1 µM, coculture fibroblast: H6013 | 0.824 | 0.811 | 0.807 | 0.804 | 0.798 | 0.827 | 0.778 | 0.76 | 0.707
1 µM, coculture fibroblast: H6019 | 0.77 | 0.742 | 0.747 | 0.69 | 0.66 | 0.646 | 0.609 | 0.572 | 0.536
1 µM, coculture fibroblast: H6076 | 0.7534 | 0.6983 | 0.718 | 0.682 | 0.665 | 0.6432 | 0.6593 | 0.6547 | 0.6467
1 µM, coculture fibroblast: H6231 | 0.748 | 0.666 | 0.705 | 0.6307 | 0.5977 | 0.584 | 0.565 | 0.546 | 0.515
1 µM, coculture fibroblast: HADF | 0.8099 | 0.77 | 0.755 | 0.741 | 0.726 | 0.76 | 0.688 | 0.684 | 0.64
1 µM, coculture fibroblast: HCFa | 0.836 | 0.863 | 0.881 | 0.87 | 0.879 | 0.915 | 0.852 | 0.848 | 0.804
1 µM, coculture fibroblast: HCPF | 0.763 | 0.718 | 0.749 | 0.697 | 0.68 | 0.651 | 0.636 | 0.623 | 0.599
1 µM, coculture fibroblast: HHSteC | 0.824 | 0.813 | 0.798 | 0.765 | 0.763 | 0.7816 | 0.7131 | 0.6922 | 0.6396
1 µM, coculture fibroblast: HMF | 0.738 | 0.676 | 0.678 | 0.631 | 0.612 | 0.583 | 0.581 | 0.568 | 0.559
1 µM, coculture fibroblast: HPFa | 0.886 | 0.854 | 0.84 | 0.815 | 0.81 | 0.825 | 0.758 | 0.732 | 0.649
1 µM, coculture fibroblast: HUF | 0.8231 | 0.76322 | 0.7561 | 0.6886 | 0.6425 | 0.616 | 0.59 | 0.57 | 0.563
1 µM, coculture fibroblast: Hs5 | 0.788 | 0.751 | 0.753 | 0.701 | 0.688 | 0.645 | 0.647 | 0.631 | 0.611
1 µM, coculture fibroblast: Hs27A | 0.835 | 0.761 | 0.768 | 0.753 | 0.733 | 0.796 | 0.687 | 0.667 | 0.595
1 µM, coculture fibroblast: Hs343T | 0.755 | 0.695 | 0.681 | 0.645 | 0.613 | 0.5812 | 0.577 | 0.561 | 0.553
1 µM, coculture fibroblast: WS1 | 0.7811 | 0.7446 | 0.7419 | 0.671 | 0.643 | 0.63136 | 0.6116 | 0.59019 | 0.57754
10 µM, coculture fibroblast: C12385 | 0.8537 | 0.8081 | 0.812 | 0.7629 | 0.7327 | 0.712 | 0.691 | 0.665 | 0.652
10 µM, coculture fibroblast: H6013 | 0.88 | 0.808 | 0.825 | 0.83 | 0.838 | 0.863 | 0.842 | 0.835 | 0.812
10 µM, coculture fibroblast: H6019 | 0.8004 | 0.7676 | 0.768 | 0.724 | 0.705 | 0.707 | 0.678 | 0.656 | 0.631
10 µM, coculture fibroblast: H6076 | 0.8 | 0.682 | 0.69 | 0.665 | 0.655 | 0.639 | 0.639 | 0.638 | 0.625
10 µM, coculture fibroblast: H6231 | 0.79 | 0.745 | 0.734 | 0.705 | 0.705 | 0.683 | 0.672 | 0.644 | 0.619
10 µM, coculture fibroblast: HADF | 0.8619 | 0.831 | 0.835 | 0.823 | 0.82 | 0.837 | 0.794 | 0.783 | 0.753
10 µM, coculture fibroblast: HCFa | 0.8773 | 0.829 | 0.84051 | 0.845 | 0.837 | 0.866 | 0.816 | 0.821 | 0.765
10 µM, coculture fibroblast: HCPF | 0.795 | 0.704 | 0.709 | 0.654 | 0.636 | 0.602 | 0.58 | 0.567 | 0.552
10 µM, coculture fibroblast: HHSteC | 0.8597 | 0.8225 | 0.8016 | 0.7779 | 0.776 | 0.787 | 0.734 | 0.707 | 0.654
10 µM, coculture fibroblast: HMF | 0.863 | 0.776 | 0.748 | 0.709 | 0.688 | 0.658 | 0.636 | 0.614 | 0.598
10 µM, coculture fibroblast: HPFa | 0.901 | 0.872 | 0.869 | 0.851 | 0.846 | 0.857 | 0.791 | 0.771 | 0.706
10 µM, coculture fibroblast: HUF | 0.876 | 0.8123 | 0.81 | 0.7577 | 0.73 | 0.705 | 0.68 | 0.675 | 0.667
10 µM, coculture fibroblast: Hs5 | 0.887 | 0.806 | 0.812 | 0.76 | 0.744 | 0.695 | 0.689 | 0.658 | 0.643
10 µM, coculture fibroblast: Hs27A | 0.919 | 0.915 | 0.913 | 0.8832 | 0.857 | 0.876 | 0.802 | 0.788 | 0.716
10 µM, coculture fibroblast: Hs343T | 0.8204 | 0.6985 | 0.726 | 0.707 | 0.703 | 0.687 | 0.678 | 0.675 | 0.677
10 µM, coculture fibroblast: WS1 | 0.81 | 0.7569 | 0.7347 | 0.684 | 0.6525 | 0.6401 | 0.613 | 0.586 | 0.566
100 µM, coculture fibroblast: C12385 | 0.922 | 0.94 | 0.882 | 0.927 | 0.915 | 0.923 | 0.916 | 0.897 | 0.887
100 µM, coculture fibroblast: H6013 | 0.974 | 0.908 | 0.824 | 0.835 | 0.836 | 0.773 | 0.792 | 0.719 | 0.814
100 µM, coculture fibroblast: H6019 | 0.838 | 0.82 | 0.8439 | 0.814 | 0.823 | 0.827 | 0.816 | 0.802 | 0.78
100 µM, coculture fibroblast: H6076 | 0.789 | 0.713 | 0.739 | 0.707 | 0.694 | 0.678 | 0.697 | 0.698 | 0.693
100 µM, coculture fibroblast: H6231 | 0.73 | 0.681 | 0.72 | 0.651 | 0.632 | 0.628 | 0.624 | 0.619 | 0.597
100 µM, coculture fibroblast: HADF | 0.915 | 0.933 | 0.95 | 0.85 | 0.84 | 0.846 | 0.875 | 0.868 | 0.913
100 µM, coculture fibroblast: HCFa | 0.8875 | 0.898 | 0.904 | 0.902 | 0.902 | 0.946 | 0.891 | 0.897 | 0.86
100 µM, coculture fibroblast: HCPF | 0.803 | 0.762 | 0.76 | 0.692 | 0.641 | 0.611 | 0.589 | 0.582 | 0.562
100 µM, coculture fibroblast: HHSteC | 0.921 | 0.947 | 0.947 | 0.929 | 0.943 | 0.96 | 0.922 | 0.907 | 0.875
100 µM, coculture fibroblast: HMF | 0.757 | 0.711 | 0.7303 | 0.693 | 0.681 | 0.666 | 0.67 | 0.662 | 0.653
100 µM, coculture fibroblast: HPFa | 0.936 | 0.837 | 0.82 | 0.855 | 0.919 | 0.877 | 0.838 | 0.83 | 0.77
100 µM, coculture fibroblast: HUF | 0.908 | 0.887 | 0.889 | 0.844 | 0.807 | 0.781 | 0.76 | 0.757 | 0.75
100 µM, coculture fibroblast: Hs5 | 0.713 | 0.69 | 0.6984 | 0.668 | 0.6653 | 0.6273 | 0.6471 | 0.6392 | 0.626
100 µM, coculture fibroblast: Hs27A | 0.934 | 0.799 | 0.9162 | 0.827 | 0.855 | 0.945 | 0.808 | 0.826 | 0.815
100 µM, coculture fibroblast: Hs343T | 0.761 | 0.705 | 0.711 | 0.68 | 0.664 | 0.642 | 0.647 | 0.6405 | 0.64
100 µM, coculture fibroblast: WS1 | 0.856 | 0.837 | 0.846 | 0.799 | 0.791 | 0.784 | 0.772 | 0.758 | 0.757
